Some of the results follow. Most entries show no effect beyond the scatter of the controls.

By UniProt entry, the sequences of proteins in these tests, tags left out. Where a name states a change or a piece, a line headed by the entry shows the natural chain unless it says otherwise.
UniProt B2RBV5: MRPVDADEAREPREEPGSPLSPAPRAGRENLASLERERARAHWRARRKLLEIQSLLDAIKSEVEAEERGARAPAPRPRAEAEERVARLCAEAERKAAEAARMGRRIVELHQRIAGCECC
UniProt O00625: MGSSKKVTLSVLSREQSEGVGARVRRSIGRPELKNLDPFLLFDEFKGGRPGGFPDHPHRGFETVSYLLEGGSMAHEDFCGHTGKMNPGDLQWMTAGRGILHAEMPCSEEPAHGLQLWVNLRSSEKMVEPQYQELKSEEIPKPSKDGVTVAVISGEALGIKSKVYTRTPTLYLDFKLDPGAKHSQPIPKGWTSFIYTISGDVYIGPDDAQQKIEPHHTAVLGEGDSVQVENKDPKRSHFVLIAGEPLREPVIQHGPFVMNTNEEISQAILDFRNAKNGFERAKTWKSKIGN
UniProt A8MTY0: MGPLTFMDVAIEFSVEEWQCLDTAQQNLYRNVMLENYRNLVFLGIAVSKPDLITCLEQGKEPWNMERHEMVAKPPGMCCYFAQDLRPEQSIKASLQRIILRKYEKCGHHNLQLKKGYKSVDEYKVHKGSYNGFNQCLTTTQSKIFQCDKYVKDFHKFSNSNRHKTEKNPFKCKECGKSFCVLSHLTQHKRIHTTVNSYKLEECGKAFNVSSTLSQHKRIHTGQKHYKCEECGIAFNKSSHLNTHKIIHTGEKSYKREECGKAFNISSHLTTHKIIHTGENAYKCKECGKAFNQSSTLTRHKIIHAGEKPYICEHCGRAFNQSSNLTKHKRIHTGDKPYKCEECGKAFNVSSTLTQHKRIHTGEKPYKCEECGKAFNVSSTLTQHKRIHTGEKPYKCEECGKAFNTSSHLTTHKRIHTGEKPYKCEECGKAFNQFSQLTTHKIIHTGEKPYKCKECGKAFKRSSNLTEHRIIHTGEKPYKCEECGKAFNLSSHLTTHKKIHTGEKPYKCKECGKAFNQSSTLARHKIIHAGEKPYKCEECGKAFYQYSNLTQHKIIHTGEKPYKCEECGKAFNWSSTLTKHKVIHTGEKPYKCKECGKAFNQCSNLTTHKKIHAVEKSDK
UniProt O15371, whole entry: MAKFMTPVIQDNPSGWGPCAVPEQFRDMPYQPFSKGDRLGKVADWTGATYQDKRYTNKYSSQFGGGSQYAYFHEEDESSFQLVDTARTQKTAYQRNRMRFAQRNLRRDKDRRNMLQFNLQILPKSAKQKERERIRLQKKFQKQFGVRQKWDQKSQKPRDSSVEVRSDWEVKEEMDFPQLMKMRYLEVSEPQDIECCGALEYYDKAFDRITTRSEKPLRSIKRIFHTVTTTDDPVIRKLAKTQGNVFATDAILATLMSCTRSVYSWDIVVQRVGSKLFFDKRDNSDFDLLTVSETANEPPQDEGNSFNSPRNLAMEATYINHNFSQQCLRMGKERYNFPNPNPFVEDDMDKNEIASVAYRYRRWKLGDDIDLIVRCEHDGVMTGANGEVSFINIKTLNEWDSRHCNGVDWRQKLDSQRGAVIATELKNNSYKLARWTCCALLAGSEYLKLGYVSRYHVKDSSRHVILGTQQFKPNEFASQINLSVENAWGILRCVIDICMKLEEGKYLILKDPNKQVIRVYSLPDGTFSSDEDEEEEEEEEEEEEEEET
UniProt B2RUZ4: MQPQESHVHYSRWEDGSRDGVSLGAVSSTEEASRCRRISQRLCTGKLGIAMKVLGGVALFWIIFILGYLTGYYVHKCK
UniProt O15440: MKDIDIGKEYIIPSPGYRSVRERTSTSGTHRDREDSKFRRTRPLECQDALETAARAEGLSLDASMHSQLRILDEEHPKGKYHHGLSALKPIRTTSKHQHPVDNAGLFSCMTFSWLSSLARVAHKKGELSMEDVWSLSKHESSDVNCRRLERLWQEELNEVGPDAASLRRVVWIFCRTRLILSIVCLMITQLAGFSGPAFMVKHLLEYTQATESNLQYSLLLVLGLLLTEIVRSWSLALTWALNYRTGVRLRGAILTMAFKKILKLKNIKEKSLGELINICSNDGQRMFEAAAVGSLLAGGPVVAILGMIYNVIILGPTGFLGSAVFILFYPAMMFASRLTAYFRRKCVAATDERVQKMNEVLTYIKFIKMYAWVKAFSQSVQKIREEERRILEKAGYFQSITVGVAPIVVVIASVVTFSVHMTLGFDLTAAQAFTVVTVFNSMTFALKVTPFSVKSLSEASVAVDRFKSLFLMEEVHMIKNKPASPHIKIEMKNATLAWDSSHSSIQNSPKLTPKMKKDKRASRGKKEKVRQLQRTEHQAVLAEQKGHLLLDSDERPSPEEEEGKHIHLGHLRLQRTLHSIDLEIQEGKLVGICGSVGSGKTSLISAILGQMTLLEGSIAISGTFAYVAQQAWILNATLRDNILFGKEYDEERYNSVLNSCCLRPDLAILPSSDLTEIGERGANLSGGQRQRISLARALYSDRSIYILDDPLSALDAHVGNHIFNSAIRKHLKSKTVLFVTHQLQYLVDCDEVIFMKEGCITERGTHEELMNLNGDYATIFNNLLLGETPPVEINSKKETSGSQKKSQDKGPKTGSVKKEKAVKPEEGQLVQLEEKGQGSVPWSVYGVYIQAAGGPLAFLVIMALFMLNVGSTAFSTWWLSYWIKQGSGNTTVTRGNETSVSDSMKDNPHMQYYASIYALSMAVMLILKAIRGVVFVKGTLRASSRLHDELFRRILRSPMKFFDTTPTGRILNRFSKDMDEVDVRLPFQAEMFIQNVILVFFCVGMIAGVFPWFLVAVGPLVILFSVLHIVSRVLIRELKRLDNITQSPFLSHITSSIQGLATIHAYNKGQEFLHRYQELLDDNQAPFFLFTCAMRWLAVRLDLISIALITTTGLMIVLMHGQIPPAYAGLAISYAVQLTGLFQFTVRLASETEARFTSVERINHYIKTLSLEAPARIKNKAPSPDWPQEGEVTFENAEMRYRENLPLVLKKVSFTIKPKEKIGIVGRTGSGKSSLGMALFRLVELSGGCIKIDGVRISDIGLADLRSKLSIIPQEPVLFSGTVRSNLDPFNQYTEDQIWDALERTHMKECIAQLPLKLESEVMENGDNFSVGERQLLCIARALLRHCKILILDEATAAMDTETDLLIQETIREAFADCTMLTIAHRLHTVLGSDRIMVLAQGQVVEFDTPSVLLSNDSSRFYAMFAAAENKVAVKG
UniProt B2RPK0: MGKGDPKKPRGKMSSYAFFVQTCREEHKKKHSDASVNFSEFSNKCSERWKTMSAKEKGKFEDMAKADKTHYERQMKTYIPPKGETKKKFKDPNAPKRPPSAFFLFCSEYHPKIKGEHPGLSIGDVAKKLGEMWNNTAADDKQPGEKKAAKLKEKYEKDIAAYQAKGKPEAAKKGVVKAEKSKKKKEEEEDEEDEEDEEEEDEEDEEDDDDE
UniProt O15417: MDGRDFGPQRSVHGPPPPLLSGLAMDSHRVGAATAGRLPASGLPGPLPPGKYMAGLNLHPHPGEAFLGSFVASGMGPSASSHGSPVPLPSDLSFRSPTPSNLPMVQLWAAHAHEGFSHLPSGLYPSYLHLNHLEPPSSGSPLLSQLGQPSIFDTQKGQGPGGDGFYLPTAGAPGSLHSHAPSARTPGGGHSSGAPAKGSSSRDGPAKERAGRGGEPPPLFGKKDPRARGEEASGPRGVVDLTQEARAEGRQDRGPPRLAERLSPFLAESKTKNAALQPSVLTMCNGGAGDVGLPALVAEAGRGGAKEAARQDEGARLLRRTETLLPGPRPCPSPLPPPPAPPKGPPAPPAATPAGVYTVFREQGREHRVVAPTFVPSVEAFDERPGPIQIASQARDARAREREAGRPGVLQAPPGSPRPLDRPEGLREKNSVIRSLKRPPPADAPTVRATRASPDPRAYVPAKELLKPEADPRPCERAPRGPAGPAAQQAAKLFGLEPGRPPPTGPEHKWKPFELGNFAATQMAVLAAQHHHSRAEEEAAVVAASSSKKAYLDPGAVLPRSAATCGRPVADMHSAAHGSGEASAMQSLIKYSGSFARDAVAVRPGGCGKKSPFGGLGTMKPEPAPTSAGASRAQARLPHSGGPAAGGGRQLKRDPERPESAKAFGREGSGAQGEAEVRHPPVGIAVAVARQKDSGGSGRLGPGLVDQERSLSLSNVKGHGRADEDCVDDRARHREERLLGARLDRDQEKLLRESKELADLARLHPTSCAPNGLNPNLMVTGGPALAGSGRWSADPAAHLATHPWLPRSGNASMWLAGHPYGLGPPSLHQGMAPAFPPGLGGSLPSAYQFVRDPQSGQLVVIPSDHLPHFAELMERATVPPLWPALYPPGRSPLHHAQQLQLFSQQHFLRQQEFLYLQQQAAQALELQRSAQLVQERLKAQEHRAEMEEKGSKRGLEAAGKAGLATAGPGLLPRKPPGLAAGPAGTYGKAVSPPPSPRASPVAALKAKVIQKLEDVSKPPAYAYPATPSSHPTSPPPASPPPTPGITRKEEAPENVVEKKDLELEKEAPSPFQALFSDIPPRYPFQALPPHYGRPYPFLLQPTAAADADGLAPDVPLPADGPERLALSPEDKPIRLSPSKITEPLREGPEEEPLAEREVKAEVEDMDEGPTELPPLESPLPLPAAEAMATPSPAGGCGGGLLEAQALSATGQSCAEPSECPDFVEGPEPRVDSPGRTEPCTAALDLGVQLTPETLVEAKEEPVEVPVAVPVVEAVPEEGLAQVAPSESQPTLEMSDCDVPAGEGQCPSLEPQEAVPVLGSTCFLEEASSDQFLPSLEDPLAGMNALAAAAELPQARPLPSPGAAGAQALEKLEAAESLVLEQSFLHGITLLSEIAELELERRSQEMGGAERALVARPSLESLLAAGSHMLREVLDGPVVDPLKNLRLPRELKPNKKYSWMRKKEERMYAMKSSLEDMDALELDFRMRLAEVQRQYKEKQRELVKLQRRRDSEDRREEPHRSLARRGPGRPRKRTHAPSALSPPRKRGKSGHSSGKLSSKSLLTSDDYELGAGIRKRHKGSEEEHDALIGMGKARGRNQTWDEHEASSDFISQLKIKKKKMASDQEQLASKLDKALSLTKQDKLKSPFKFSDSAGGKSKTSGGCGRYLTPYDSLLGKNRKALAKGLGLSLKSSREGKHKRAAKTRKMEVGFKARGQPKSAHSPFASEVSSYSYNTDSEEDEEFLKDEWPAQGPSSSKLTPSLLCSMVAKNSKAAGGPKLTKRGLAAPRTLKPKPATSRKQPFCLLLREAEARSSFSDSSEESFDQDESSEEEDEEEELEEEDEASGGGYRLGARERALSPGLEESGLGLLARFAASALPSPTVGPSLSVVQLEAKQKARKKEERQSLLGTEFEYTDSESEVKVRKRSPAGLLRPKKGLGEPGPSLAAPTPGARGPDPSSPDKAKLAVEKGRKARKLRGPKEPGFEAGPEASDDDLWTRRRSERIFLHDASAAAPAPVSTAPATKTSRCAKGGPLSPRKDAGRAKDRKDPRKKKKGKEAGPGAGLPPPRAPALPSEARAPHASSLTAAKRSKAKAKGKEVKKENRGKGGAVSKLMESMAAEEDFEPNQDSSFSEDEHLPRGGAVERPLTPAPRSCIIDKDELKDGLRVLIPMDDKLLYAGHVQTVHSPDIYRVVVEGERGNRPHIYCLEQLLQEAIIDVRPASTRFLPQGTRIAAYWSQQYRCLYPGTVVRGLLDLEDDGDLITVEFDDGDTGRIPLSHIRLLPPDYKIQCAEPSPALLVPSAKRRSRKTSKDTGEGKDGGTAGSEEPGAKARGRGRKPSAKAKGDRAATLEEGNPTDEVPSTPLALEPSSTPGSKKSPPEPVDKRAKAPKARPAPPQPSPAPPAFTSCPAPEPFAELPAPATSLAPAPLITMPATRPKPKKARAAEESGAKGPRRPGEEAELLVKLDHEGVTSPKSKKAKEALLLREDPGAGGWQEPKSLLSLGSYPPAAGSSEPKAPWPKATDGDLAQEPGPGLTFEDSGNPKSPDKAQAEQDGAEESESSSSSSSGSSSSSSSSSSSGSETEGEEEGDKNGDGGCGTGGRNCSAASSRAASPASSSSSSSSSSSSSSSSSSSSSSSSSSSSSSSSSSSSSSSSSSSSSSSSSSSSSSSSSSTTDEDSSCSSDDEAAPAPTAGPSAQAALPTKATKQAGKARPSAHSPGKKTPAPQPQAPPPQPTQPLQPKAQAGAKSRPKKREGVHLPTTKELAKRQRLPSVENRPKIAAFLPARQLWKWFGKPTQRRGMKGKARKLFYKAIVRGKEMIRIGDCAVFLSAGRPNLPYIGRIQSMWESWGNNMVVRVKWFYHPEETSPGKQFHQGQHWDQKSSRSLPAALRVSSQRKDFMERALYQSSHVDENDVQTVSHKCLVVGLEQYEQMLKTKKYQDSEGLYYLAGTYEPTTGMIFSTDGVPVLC
UniProt O00287: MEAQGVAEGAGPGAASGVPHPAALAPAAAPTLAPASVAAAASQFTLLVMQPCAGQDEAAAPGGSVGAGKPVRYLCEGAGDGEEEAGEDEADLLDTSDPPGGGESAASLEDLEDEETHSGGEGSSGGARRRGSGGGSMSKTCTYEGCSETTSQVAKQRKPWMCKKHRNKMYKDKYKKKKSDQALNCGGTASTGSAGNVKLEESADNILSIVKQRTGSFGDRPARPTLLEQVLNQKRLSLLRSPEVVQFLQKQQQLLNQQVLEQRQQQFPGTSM

Compound in the test: Cc1nc(Nc2ncc(C(=O)Nc3c(C)cccc3Cl)s2)cc(N2CCN(CCO)CC2)n1 [dasatinib]
Kind of test: log2 fold change of tryptic peptide abundance, ligand vs vehicle (limited proteolysis) (log2 ratio); higher = more trypsin-susceptible (destabilized). The settings on record: ligand concentration: 5 uM; sample: K562 cleared lysate.
For “WASL (peptide sequence: KVEQNSRPVSCSGR, peptide start residue: 421) (UniProt O00401)”, the log2 fold change is -0.182.
Turning to “NA (peptide sequence: ENLASLER, peptide start residue: 29) (UniProt B2RBV5)”, the log2 fold change came to 0.0514.
Under “OPLAH (peptide sequence: YVQGFCR, peptide start residue: 248) (UniProt O14841)” stands -0.461; under “PIR (peptide sequence: TPTLYLDFK, peptide start residue: 167) (UniProt O00625)”, -0.413; under “N4BP3 (peptide sequence: APGTLPEADPSARPEEEAR, peptide start residue: 349) (UniProt O15049)”, 0.696.
Take “MDM4 (peptide sequence: TISAPVVRPK, peptide start residue: 365) (UniProt O15151)”: the log2 fold change is -0.232.
In the case of “FANCA (peptide sequence: ASDAVQMQR, peptide start residue: 336) (UniProt O15360)” it was -0.598; in that of “ZNF724 (peptide sequence: AFNLSSHLTTHK, peptide start residue: 486) (UniProt A8MTY0)”, 0.33; in that of “UniProt O00442 (peptide sequence: QLNPINLTER, peptide start residue: 177)”, -0.296.
“EIF3D (peptide sequence: LGDDIDLIVR, peptide start residue: 365) (UniProt O15371)”: the log2 fold change amounted to 0.282.
In the case of “TOR1A (peptide sequence: LYCLFAECCGQKR, peptide start residue: 42) (UniProt O14656)” it was -0.0704; in that of “UniProt O14543 (peptide sequence: SEYQLVVNAVR, peptide start residue: 29)”, 0.0796.
In the case of “SMIM1 (peptide sequence: MQPQESHVHYSR, peptide start residue: 1) (UniProt B2RUZ4)”, the log2 fold change was 0.0544.
For “GYG2 (peptide sequence: VKELSPEEER, peptide start residue: 464) (UniProt O15488)”, the log2 fold change amounted to 0.275.
Take “UniProt E9PRG8 (peptide sequence: EKTAMEVEAPSKPAR, peptide start residue: 82)”: the log2 fold change is 0.14.
With “ABCC5 (peptide sequence: TEHQAVLAEQK, peptide start residue: 536) (UniProt O15440)”, the log2 fold change is 0.0608.
In the case of “HAT1 (peptide sequence: INKQHAR, peptide start residue: 323) (UniProt O14929)” it was -0.286.
Regarding “ARPC5 (peptide sequence: QGNMTAALQAALK, peptide start residue: 48) (UniProt O15511)”, the log2 fold change was 0.31.
In the case of “OGT (peptide sequence: MLSFQGLAELAHR, peptide start residue: 18) (UniProt O15294)” it was 0.53; in that of “EBAG9 (peptide sequence: KREPLNFGIPDGSTGFSSR, peptide start residue: 112) (UniProt O00559)”, -0.00241; in that of “UniProt B2RPK0 (peptide sequence: GEHPGLSIGDVAKK, peptide start residue: 115)”, 0.0668.
In the case of “TNRC18 (peptide sequence: GPAGPAAQQAAK, peptide start residue: 481) (UniProt O15417)” it was -0.758; in that of “KIF2A (peptide sequence: GSLDYRPLTTADPIDEHR, peptide start residue: 206) (UniProt O00139)”, 0.1.
In the case of “UniProt O14709 (peptide sequence: IHTGEKPYGCNDCSK, peptide start residue: 951)” it was 0.402; in that of “RFXAP (peptide sequence: SPEVVQFLQK, peptide start residue: 241) (UniProt O00287)”, 0.0896.
“ARID1A (peptide sequence: TELLPSRPHAPCPPAPR, peptide start residue: 1863) (UniProt O14497)”: the log2 fold change was -0.165.
On to “UniProt A8MQ14 (peptide sequence: MYTDERPHECQESVK, peptide start residue: 246)”, for which the log2 fold change was -0.159.

The values above are taken from the supplement of paper PMC12819154, “High-throughput peptide-centric local stability assay extends protein–ligand identification to membrane proteins, tissues and bacteria” (Nature Structural & Molecular Biology, 2025).
